Reference: PubChem BioAssay AID1117319 (Southern Research Institute, 2015)
Screen size: about 260,000 compounds; about 1,500 (0.58%) were called active. Inconclusive results, whose numbers are uncertain, are shown with a selection of clear calls.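 Rule for the calls: active = inhibition above a set limit at one or more doses, reproduced on every date tested; inconclusive = results disagree between test dates, or hit never tested in dose response; inactive = the rest.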

Chains of the proteins cited; added tags and fusions are not shown. Lines headed by an entry give the natural chain unless they say otherwise; changes in a name come on top.
UniProt P69720: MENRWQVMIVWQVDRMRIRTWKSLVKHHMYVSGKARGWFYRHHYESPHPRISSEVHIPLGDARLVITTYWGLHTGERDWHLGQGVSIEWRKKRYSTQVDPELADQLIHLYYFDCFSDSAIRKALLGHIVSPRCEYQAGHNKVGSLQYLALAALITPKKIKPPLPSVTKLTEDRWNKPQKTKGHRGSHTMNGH
UniProt P69721: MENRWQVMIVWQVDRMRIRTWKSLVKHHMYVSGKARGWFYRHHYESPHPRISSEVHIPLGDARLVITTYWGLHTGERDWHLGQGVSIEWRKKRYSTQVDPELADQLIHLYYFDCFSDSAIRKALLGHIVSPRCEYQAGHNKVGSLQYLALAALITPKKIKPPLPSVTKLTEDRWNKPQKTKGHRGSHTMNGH
UniProt P69722: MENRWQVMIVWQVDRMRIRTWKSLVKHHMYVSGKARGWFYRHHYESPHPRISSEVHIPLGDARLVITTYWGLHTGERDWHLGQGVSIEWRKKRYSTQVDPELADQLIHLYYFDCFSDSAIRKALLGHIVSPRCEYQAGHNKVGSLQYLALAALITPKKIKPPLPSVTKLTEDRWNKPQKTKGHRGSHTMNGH
UniProt P69723: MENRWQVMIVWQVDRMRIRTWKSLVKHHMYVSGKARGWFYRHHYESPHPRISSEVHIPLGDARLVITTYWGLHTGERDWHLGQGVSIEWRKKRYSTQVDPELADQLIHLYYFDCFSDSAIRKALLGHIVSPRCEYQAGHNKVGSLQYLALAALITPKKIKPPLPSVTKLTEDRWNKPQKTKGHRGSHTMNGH
UniProt Q9HC16: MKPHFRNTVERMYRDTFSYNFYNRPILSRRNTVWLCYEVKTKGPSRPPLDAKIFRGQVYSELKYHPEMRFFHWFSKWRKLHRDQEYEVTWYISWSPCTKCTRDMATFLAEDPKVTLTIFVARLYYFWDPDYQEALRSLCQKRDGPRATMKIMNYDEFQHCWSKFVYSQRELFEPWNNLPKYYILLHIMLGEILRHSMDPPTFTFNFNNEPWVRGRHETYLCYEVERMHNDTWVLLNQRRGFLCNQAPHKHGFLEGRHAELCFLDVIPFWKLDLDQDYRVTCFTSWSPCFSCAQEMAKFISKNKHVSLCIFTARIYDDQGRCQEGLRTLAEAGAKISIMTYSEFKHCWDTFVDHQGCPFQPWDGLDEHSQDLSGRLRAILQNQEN

These compounds were tested against Virion infectivity factor (Human immunodeficiency virus type 1 group M subtype B (isolate BH10)) + Virion infectivity factor (Human immunodeficiency virus type 1 group M subtype B (isolate BRU/LAI)) + Virion infectivity factor (Human immunodeficiency virus type 1 group M subtype B (isolate PCV12)) + Virion infectivity factor (Human immunodeficiency virus type 1 group M subtype B (isolate HXB2)) + DNA dC->dU-editing enzyme APOBEC-3G (Homo sapiens) (UniProt P69720+P69721+P69722+P69723+Q9HC16) (assay: inhibitors of Vif binding to APOBEC3G peptide, primary screen, biochemical, TR-FRET, GST-Vif 1-94, biotin-A3G peptide, dose response retest (AID 1117319;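 note: Vif residues 1-94 fused to GST binding biotinylated APOBEC3G peptide 110-148; 0% = full assay without inhibitor and 100% = GST in place of GST-Vif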)). Conditions: active compounds read high.

Row | SMILES | inhibition
1 | O=C(CN1C(=O)C(=O)N(Cc2ccco2)C1=O)NC1CCCCC1 | inactive: 10.2%
2 | O=C(/C(Br)=C/Nc1cc(Cl)ccc1Cl)C(F)(F)F | inconclusive: 43.4%
3 | S=c1[nH]nc(-c2ccco2)n1/N=C/C=C/c1ccco1 | inconclusive: 60.9%
4 | COc1ccc(OCCNC(=O)c2cccc(Oc3ccc(C(F)(F)F)cc3[N+](=O)[O-])c2)cc1 | inconclusive: 41.9%
5 | CCc1ccccc1NC(=O)Cc1cn(C)c2ccccc12 | inactive: -13.9%
6 | COc1ccc(NC(=S)Nc2ccc3nc(C)c(C)nc3c2)cc1 | inconclusive: 38.1%
7 | CCOC(=O)C(C)Oc1ccc(OCc2ccccc2)cc1 (centres undefined) | inconclusive: 47.2%
8 | CCOC(=O)c1c(C)oc2c1c(C=NCCC(=O)O)c(O)c1ccccc12 | inconclusive: 51.9%
9 | CCOC(=O)CSc1ccc2nnc(-c3ccncc3)n2n1 | inactive: 3.55%
10 | Brc1ccc(-c2cnco2)cc1 | inconclusive: 35.1%
11 | C/C(CC(=O)Nc1ccc2ccccc2c1)=N\NC(=O)c1ccc(O)c(O)c1 | inconclusive: 52.8%
12 | CCOc1ccc(S(=O)(=O)N(C(=O)c2ccco2)c2cc3sc(=O)oc3c3ccccc23)cc1 | inconclusive: 59.4%
13 | O=C(Nc1ccc(S(=O)(=O)N2CCOCC2)cc1)c1cccs1 | inconclusive: 43.8%
14 | CN(C)c1ccc(NC2=C([N+](=O)[O-])CS(=O)(=O)C2)cc1 | inconclusive: 49.2%
15 | O=C(O)c1ccc2c(c1)CCCN2 | inactive: -1.03%
16 | CN(C)c1ccc(C(=O)Nc2nc3c(s2)CCCC3)cc1 | inconclusive: 48.1%
17 | O=C(NCc1ccccc1)c1cc(-c2ccco2)on1 | inconclusive: 60.8%
18 | CC(=O)C1=C(C)OC(N)=C(C#N)C1c1cc2cccc(C)c2nc1Cl (centres undefined) | inactive: -1.1%
19 | Cc1cccc(Nc2nc(N)c([N+](=O)[O-])c(N3CCN(C)CC3)n2)c1 | inconclusive: 40.9%
20 | COc1ccc(CNC(=O)c2ccc(Br)cc2)cc1 | inconclusive: 41.2%
21 | COC(=O)C1=C(C)NC(=O)/C1=C\c1cc(C)n(-c2cccc(C)c2)c1C | inconclusive: 45.5%
22 | O=C(COc1ccccc1F)Nc1ccc2c(c1)OCCO2 | inconclusive: 48.6%
23 | CCOCC(O)CNC(=O)c1ccc(OC2CCN(C(=O)c3cccnc3)CC2)cc1 (centres undefined) | inconclusive: 54.3%
24 | O=C(NCc1ccco1)c1cc(-c2ccccc2)on1 | inactive: -2.43%

Compounds 11 to 12 from above:
Row | SMILES | inhibition
11 | C/C(CC(=O)Nc1ccc2ccccc2c1)=N\NC(=O)c1ccc(O)c(O)c1 | inconclusive: 52.8%
12 | CCOc1ccc(S(=O)(=O)N(C(=O)c2ccco2)c2cc3sc(=O)oc3c3ccccc23)cc1 | inconclusive: 59.4%

Following part:

Row | SMILES | inhibition
25 | CC(=O)Nc1nnc(CSCc2ccccc2F)s1 | inconclusive: 39.2%
26 | Cc1ccc(-n2nc3ccc(NC(=O)/C=C/c4ccco4)cc3n2)cc1 | inconclusive: 49.1%
27 | C=CCOc1ccc(CNn2nnnc2N)cc1 | inconclusive: 39.4%
28 | COc1cccc(N(CC(=O)NC2CCCCC2)C(=O)CCCC(=O)Nc2ccccn2)c1 | inconclusive: 37.6%
29 | NC(=O)CC1SC(N)=NC1=O (centres undefined) | inconclusive: 51.1%
30 | Cc1cc(-c2nc(C)c(C(=O)NN)s2)no1 | inconclusive: 43.9%
31 | COc1ccc(Sc2ccccc2CN(C)C)cc1OC | inconclusive: 33.4%
32 | Cn1c(SCC(=O)NC(C)(C)C)nc(O)cc1=O | inconclusive: 59.6%
33 | CCN1C(=O)N/C(=C/c2ccc(Sc3ccc(C)cc3)o2)C1=O | inconclusive: 46.7%
34 | COc1ccc(NC(=O)C2(c3ccc(NC(=O)c4ccc(OC)c(OC)c4)cc3)CCCC2)cc1 | inactive: 0.05%
35 | O=C(Cc1cccs1)Nc1ccc(N2CCOCC2)cc1 | inconclusive: 35.6%
36 | CCN(CC(=O)Nc1c(F)cccc1F)C(=O)c1ccc2c(c1)OCCO2 | inactive: 8.86%
37 | COc1ccc(C(=O)O/N=C(\N)c2ccccc2)c(OC)c1 | inactive: 2.57%
38 | CSc1nc(N)n2nc(C(C)(C)C)cc2n1 | inconclusive: 39.2%
39 | O=C(COc1ncnc2c(Cl)cc(Cl)cc12)NC1CCCCCC1 | inconclusive: 49.3%
40 | CCc1c(C)nc(SCC(N)=O)c(C#N)c1C | inconclusive: 58.6%
41 | C=C[C@@H]1CN2CCC1C[C@@H]2[C@@H](O)c1ccnc2ccc(OC)cc12 (some centres undefined) | inconclusive: 47.2%
42 | CCN1CCN(S(=O)(=O)c2ccc(C(=O)Nc3ccccc3)cc2)CC1 | inconclusive: 51.8%
43 | COc1ccc(CCN(C)CCN2C(=O)c3ccccc3C2=O)cc1OC | inconclusive: 34.4%
44 | CC(=O)c1cnn(-c2ccc(Cl)c(Cl)c2Cl)c1C | inconclusive: 36.8%
45 | Cc1cccc(NC(=O)Cn2nnc(-c3cccs3)n2)c1C | inconclusive: 26.1%
46 | COC(=O)COc1ccc(-c2nn(C)c(=O)c3ccccc23)cc1 | inconclusive: 45.8%
47 | Cc1csc2cc(-c3cccc([N+](=O)[O-])c3)c(-c3cccc([N+](=O)[O-])c3)c[n+]12 | inactive: 1.42%
48 | O=C(CNC(=O)c1ccccc1)OCc1cccc(Br)c1 | inconclusive: 50.9%

Row | SMILES | inhibition
49 | O=C1CCCC(O)=C1N=Nc1ccc(Cl)c(Cl)c1 | inactive: -7.94%
50 | CN(C)CCCNC(=O)/C(=N\O)c1ccccc1 | inconclusive: 37.7%
51 | CC(=O)C1=C(C)NC(SCC(=O)c2ccc(Cl)cc2)=C(C#N)C1c1ccco1 (centres undefined) | inconclusive: 34.1%
52 | CCOC(=O)NC1(NC(C)C)Oc2ccccc2O1 | inconclusive: 61.9%
53 | Oc1cc(O)c2c(c1)O[C@H](c1ccc(O)c(O)c1)[C@@H](O)C2 | inconclusive: 51.4%
54 | OCCC1CN(Cc2cc3c(cc2Cl)OCO3)CCN1C1CCCC1 (centres undefined) | inconclusive: 48%
55 | O=C1/C(=C\c2ccco2)SC(=S)N1c1ccc(O)cc1 | inconclusive: 65%
56 | CCCC(=O)Nc1nc(-c2ccc(OC)cc2)cs1 | inconclusive: 35.8%
57 | Cc1cc2c(c(=O)o1)C(C13C=CC(CC1)C3)C(C#N)=C(N)O2 (centres undefined) | inconclusive: 57.9%
58 | O=C(CC(Nc1ccccc1)c1ccc(F)cc1)c1ccccc1 (centres undefined) | inconclusive: 61.4%
59 | CCOC(=O)COc1ccccc1/C=C1\NC(=O)NC1=O | inconclusive: 45.6%
60 | COC(=O)c1c(C)cc(C)n2c1nc1ccccc12 | inconclusive: 35%
61 | CCOC(=O)C1CCCN(C(=O)c2ccc(Cl)cc2)C1 (centres undefined) | inconclusive: 40.3%
62 | CCCOC(=O)c1cc(NC(=O)/C=C/c2ccccc2)ccc1O | inconclusive: 57.7%
63 | COc1nc(NC(C)C)nc(N(C#N)CN2C(=O)c3ccccc3S2(=O)=O)n1 | inconclusive: 53.5%
64 | COc1ccc(Oc2cn[nH]c2-c2ccc(O)cc2O)cc1 | inconclusive: 38%
65 | COc1ccc2c(=O)c3c(=O)n(Cc4ccco4)c(-c4ccc(C)cc4)nc3oc2c1 | inactive: -32.5%
66 | O=C(CSc1ccc2nnc(-c3cccc(F)c3)n2n1)NCc1ccco1 | inconclusive: 33%
67 | N#CCC(N)=C(C#N)C#N | inconclusive: 45.5%
68 | CCCN(CC1CC1)C(=O)COC(=O)c1[nH]c(C)c(C(=O)OCC)c1C | inconclusive: 57.1%
69 | COc1ccc(C(=O)C(Cc2cc(C(C)=O)ccc2OC)N2CCCC2)cc1 (centres undefined) | inconclusive: 36.9%
70 | COc1ccc2cc(CN(CCc3ccccc3)Cc3nnnn3Cc3ccco3)c(=O)[nH]c2c1 | inconclusive: 44.5%
71 | Cc1cc(Nc2cccc(F)c2)n2ncnc2n1 | inconclusive: 36.6%
72 | CCOC(=O)C1CCN(C(=O)c2cccc(S(=O)(=O)N(CC)c3ccccc3)c2)CC1 | inconclusive: 34.9%

Among those listed so far, 2 contain a CF3 group:
Row | SMILES | inhibition
2 | O=C(/C(Br)=C/Nc1cc(Cl)ccc1Cl)C(F)(F)F | inconclusive: 43.4%
4 | COc1ccc(OCCNC(=O)c2cccc(Oc3ccc(C(F)(F)F)cc3[N+](=O)[O-])c2)cc1 | inconclusive: 41.9%

The list continues.

Row | SMILES | inhibition
73 | OC(COC(c1ccc(Cl)cc1)c1ccc(Cl)cc1)CN1CCN(c2ccccn2)CC1 (centres undefined) | inconclusive: 53.5%
74 | C1=C(c2ccccc2)N2CCN=C2S1 | inconclusive: 60.2%
75 | CC(C)(C)c1cc(C(=O)O)c(CN2CCCCC2)o1 | inconclusive: 37.1%
76 | CN(C(=O)COC(=O)CNC(=O)c1ccc(Cl)cc1Cl)c1ccccc1 | inconclusive: 40.8%
77 | Cc1ccc(NC(=O)CSc2nnc(Cn3c(=O)sc4ccccc43)n2C)cc1 | inconclusive: 46.9%
78 | C/C=N/N(c1ccccc1)c1ccccc1 | inconclusive: 60.5%
79 | Cc1ccc(C)c(N2CN(Cc3cccnc3)CNC2=S)c1 | inconclusive: 37.1%
80 | O=C1CC(c2ccc(F)cc2)C2=C(CCCC2=O)N1 (centres undefined) | inconclusive: 22.5%
81 | CCOc1ccc(NC2c3ccccc3C(=O)N2c2ccc(Cl)cn2)cc1 (centres undefined) | inconclusive: 35.7%
82 | COc1ccc(-c2cn3nc4c(nc3n2)CCCC4)cc1 | inconclusive: 39.5%
83 | Cc1ccc2c(c1)c1c(n2C)C(=O)CCC1 | inactive: -2%
84 | Oc1ccc(N2CCN(C(=S)NCc3ccccc3)CC2)cc1 | inconclusive: 40.3%
85 | Cc1ccc(C(=O)N[C@H](C(=O)OCC(=O)c2ccc[nH]2)C(C)C)cc1 | inactive: -7.75%
86 | CC1(C)Cc2c(C#N)c(N3CCN(C(=O)c4ccccc4Cl)CC3)nc(-c3ccco3)c2CS1 | inconclusive: 61.6%
87 | O=C(c1cccc(F)c1)N1CCC(N2CCCCCC2)CC1 | inconclusive: 39.9%
88 | COc1cccc(NC2c3ccccc3C(=O)N2Cc2ccccc2Cl)c1 (centres undefined) | inconclusive: 37.2%
89 | CC1(C)C(=O)NCCN1C(=O)CCC(=O)O | inactive: -4.36%
90 | CN(C)CCCN1c2ccccc2Sc2ccc(C(F)(F)F)cc21 | inconclusive: 55.1%
91 | O=C(NCc1ccco1)c1ccccc1NS(=O)(=O)c1ccc2c(c1)OCCO2 | inconclusive: 33.9%
92 | Cc1ccc(-n2cc(-c3ccccc3)c3c(NN4CCOCC4)ncnc32)cc1 | inactive: 21%
93 | COc1ccc(/C=N/NC(=O)c2ccncc2)cc1CN1CCOCC1 | inconclusive: 37.4%
94 | O=C(Nc1cc(=O)[nH]c2nc(-c3ccc(Cl)cc3)nn12)c1ccccc1 | inconclusive: 44.6%
